{"sequences": {"note": "The chains behind the UniProt entries cited, without tags or fusion partners. Where a name states a change or a piece, a line headed by the entry shows the natural chain unless it says otherwise.", "UniProt C4M7U2": "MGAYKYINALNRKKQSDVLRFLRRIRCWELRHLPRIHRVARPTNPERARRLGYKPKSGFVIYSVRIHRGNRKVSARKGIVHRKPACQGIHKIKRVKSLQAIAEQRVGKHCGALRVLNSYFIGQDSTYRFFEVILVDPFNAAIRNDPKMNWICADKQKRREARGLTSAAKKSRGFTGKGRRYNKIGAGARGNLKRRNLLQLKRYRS", "UniProt C4MAC9": "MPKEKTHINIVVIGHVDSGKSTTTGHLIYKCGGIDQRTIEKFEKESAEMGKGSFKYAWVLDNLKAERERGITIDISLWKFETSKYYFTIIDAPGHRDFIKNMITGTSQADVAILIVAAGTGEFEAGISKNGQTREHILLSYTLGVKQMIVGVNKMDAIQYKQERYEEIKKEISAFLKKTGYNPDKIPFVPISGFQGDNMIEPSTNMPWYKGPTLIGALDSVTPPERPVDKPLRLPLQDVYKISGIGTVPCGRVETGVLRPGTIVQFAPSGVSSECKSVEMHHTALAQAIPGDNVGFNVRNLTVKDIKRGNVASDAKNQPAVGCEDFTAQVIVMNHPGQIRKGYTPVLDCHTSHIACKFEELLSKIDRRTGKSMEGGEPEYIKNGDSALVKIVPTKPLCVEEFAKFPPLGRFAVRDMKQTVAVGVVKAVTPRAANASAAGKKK", "UniProt C4M549": "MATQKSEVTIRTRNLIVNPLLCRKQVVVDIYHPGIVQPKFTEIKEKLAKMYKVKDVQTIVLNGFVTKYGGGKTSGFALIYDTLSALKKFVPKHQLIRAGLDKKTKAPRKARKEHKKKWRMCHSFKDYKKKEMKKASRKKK", "UniProt C4M2T6": "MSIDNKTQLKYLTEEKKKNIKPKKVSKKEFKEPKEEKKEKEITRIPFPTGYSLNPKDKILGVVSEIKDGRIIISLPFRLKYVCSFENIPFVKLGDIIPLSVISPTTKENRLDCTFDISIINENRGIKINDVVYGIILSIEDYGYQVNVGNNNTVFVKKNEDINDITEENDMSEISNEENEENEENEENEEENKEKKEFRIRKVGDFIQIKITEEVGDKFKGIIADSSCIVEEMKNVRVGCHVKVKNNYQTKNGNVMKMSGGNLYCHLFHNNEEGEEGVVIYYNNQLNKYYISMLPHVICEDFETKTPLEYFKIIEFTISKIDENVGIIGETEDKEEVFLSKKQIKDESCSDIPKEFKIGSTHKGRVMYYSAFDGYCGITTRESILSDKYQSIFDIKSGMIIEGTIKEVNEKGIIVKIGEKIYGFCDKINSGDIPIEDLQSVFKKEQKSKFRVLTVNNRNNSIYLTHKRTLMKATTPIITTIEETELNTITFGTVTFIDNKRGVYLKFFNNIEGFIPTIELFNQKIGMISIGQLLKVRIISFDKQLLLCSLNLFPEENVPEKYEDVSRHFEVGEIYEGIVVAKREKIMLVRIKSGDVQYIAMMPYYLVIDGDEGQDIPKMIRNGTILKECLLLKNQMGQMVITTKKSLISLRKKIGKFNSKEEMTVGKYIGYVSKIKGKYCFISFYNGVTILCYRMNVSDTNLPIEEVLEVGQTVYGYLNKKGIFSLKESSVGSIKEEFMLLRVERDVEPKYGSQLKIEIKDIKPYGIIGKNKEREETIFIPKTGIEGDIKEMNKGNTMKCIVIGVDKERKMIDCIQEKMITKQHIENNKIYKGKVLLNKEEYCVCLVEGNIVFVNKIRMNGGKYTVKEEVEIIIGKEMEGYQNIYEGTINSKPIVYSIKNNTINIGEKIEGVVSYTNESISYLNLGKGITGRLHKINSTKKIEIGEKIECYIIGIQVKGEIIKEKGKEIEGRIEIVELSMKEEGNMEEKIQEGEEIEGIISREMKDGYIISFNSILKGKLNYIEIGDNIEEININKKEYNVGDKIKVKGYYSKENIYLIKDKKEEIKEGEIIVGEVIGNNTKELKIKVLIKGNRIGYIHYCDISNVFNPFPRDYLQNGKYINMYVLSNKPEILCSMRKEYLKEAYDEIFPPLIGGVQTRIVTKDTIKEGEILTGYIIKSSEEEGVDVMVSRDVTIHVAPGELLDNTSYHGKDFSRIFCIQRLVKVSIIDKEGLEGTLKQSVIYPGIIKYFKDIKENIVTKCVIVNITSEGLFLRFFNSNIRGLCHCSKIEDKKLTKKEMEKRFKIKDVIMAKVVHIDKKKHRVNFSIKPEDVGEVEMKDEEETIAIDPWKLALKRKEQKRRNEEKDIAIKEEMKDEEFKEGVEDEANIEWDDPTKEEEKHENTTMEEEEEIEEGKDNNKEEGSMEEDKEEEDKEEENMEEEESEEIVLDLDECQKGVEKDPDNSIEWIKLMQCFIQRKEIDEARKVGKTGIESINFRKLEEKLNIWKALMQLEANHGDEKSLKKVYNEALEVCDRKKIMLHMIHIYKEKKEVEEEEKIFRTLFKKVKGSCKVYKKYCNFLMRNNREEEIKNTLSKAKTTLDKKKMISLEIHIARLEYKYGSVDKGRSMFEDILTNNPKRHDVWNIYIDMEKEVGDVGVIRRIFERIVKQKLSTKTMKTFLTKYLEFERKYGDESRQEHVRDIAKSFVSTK", "UniProt C4LVR9": "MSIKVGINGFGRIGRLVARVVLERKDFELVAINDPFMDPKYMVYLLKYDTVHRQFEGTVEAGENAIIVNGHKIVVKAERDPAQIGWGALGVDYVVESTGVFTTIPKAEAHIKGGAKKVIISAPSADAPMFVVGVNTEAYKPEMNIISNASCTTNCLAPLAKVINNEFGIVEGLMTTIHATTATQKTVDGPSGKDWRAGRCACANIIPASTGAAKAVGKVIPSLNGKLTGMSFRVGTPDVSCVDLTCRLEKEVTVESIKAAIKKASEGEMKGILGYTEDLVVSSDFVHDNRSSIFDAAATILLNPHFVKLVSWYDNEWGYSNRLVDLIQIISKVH", "UniProt C4M7K9": "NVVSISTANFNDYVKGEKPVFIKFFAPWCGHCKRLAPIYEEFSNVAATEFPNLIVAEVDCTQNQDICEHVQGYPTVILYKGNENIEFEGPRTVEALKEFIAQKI"}, "source": "paper PMC9912109", "molecules": {"B1": {"name": "NEDD4-binding protein 2 (protein, UniProt C4M2C9 1-261)", "chain": "MGLLFIIIISILAYLGYLIYKKELTWPIEDSIIYKKVLVMIEQANAIIKEKQKHLKTDEITSPKTEKTQKEIKTKSDDNVVHVPKPKGDEPVIEDRPNGKKEVVSGDKSILIDRIKSKHFDPVDQKFNEATQLREKYIKAKDAKSPEKNELFEKYEATRKEAEEMKKKATIAIFEEVNIYMVDEDAIDLHGLQIDGALDMVKDQINKRKAAGKSIVKVQCGMGHHNTVGFSKIKEAVVKYCQDEKLSFTEDKDHGFVNISL"}, "B2": {"name": "Peroxiredoxin (protein, UniProt C4M3Q0 1-233)", "chain": "MSCNQQKECCKKECQEKECCKECCCPRIKAFKKFINTFEKAQIGKEAPEFKAPAYCPCGSIKEIDINEYRGKYVVLLFYPLDWTFVCPTEMIGYSELAGQLKEIDCEVIGVSVDSVYCHQAWCEADKSKGGVGKLTFPLVSDIKRCISIKYGMLNVEAGIARRGYVIIDDKGKVRYIQMNDDGIGRSTEETIRIVKAIQFSDEHGAVCPLNWKPGKDTIEPTPDGIKKYLTAH"}, "B3": {"name": "WD repeat protein (protein, UniProt C4M3H5 1-341)", "chain": "MTQQEDTILCISINEQKSYIGIGTINGFYIFDINNPSKAIFHESIGGVGLIELKGESQYLLLVGGGPNPFESPTVACLYDLNNHQFVPSNKYSYARAIRRIRMTKKDTFIALENNIDVYCEGKVSTTFDTYDNPNGLFSVNYNSRKFAYPSITEGTITIHDLDNKTDVAVISAHEHSIYTLSPSFDSTIVTVSENGTLVRIWETTSGTLLKEFRRGMNPAHVYCVALSDDGKLVALHSENGTIHVFSLTEDIKNQIGWVAKGIGSIKWWFGVENNVSDYASLIIHDILPKTQTELYFLQSEYYKIGLFGLNGKYYESQLSLENQQLVDDKSAEIQTIQLNE"}}, "note": "These are yes or no findings as the source states them, for the method shown. In cells and extracts the contact can be indirect. These calls come from enrichment with a bait or labelling near it, and not all partners need be listed. Tags and fused reporters may be left off the sequences shown.", "data": [{"target": "T1, EhCFIm25 (Entamoeba histolytica (endogenous in trophozoites, strain HM1:IMSS)) (UniProt C4M2T1)", "T1 sequence": "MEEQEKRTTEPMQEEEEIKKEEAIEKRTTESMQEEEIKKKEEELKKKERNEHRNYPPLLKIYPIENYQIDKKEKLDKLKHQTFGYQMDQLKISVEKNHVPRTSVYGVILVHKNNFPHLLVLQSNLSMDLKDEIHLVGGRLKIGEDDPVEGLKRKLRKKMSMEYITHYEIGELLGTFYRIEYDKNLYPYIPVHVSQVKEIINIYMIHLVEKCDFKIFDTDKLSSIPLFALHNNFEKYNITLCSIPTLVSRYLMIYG", "test": "affinity purification with mass spectrometry; CLIP: trophozoites UV-irradiated (254 nm, 30 min, 4°C); precleared nuclear extract (100 µg) incubated 2 h at 37°C with Dynabeads protein A/G coupled to anti-EhCFIm25 polyclonal antibody (made by the authors); washes with 20 mM Tris pH 7.5, 0.5 M NaCl, 0.05% Tween 20; elution 0.1 M glycine pH 2.0; eight IPs pooled, LC-ESI-HDMSE, only proteins found in both MS replicates", "values": [{"molecule": "60S ribosomal protein L15 (from UniProt C4M7U2)", "binding": "binds"}, {"molecule": "Elongation factor 1-alpha 1 (from UniProt C4MAC9 1-442)", "binding": "binds"}, {"molecule": "Ribosomal protein S24_ putative (from UniProt C4M549)", "binding": "binds"}, {"molecule": "S1 RNA binding domain-containing protein (from UniProt C4M2T6 1-1710)", "binding": "binds"}, {"molecule": "B1", "binding": "binds"}]}, {"target": "T1, EhCFIm25 (Entamoeba histolytica (endogenous in trophozoites, strain HM1:IMSS))", "test": "affinity purification with mass spectrometry; CLIP: trophozoites UV-irradiated (254 nm, 30 min, 4°C); precleared nuclear extract (100 µg) incubated 2 h at 37°C with Dynabeads protein A/G coupled to anti-HsCFIm25 polyclonal antibody (GeneTex GTX115535); washes with 20 mM Tris pH 7.5, 0.5 M NaCl, 0.05% Tween 20; elution 0.1 M glycine pH 2.0; eight IPs pooled, LC-ESI-HDMSE, only proteins found in both MS replicates", "values": [{"molecule": "Glyceraldehyde-3- phosphate dehydrogenase (from UniProt C4LVR9)", "binding": "binds"}, {"molecule": "Thioredoxin_ putative (from UniProt C4M7K9)", "binding": "binds"}, {"molecule": "B2", "binding": "binds"}, {"molecule": "B3", "binding": "binds"}]}]}
